Results on one molecule are retold here after publication PMC2726289.

No constants are given. Whether binding was seen depends on the method and setting. In cells and extracts the contact can be indirect. A result given as binding can be weak or reduced; the word gives no strength.

The assay has as its target GTPase Regulator Associated with Focal Adhesion Kinase-1 (GRAF1) (rat (endogenous in rat brain)). In words: co-IP; GRAF1 immunoprecipitated from rat brain cytosol via Ab2; Dynamin1 identified by mass spectrometry and confirmed by immunoblot. In general terms: Immunoblotting shows a protein as a band on a membrane.

B1: Dynamin1 (rat brain cytosol) (protein, UniProt P21575 1-864)
chain: MGNRGMEDLIPLVNRLQDAFSAIGQNADLDLPQIAVVGGQSAGKSSVLENFVGRDFLPRGSGIVTRRPLVLQLVNSTTEYAEFLHCKGKKFTDFEEVRLEIEAETDRVTGTNKGISPVPINLRVYSPHVLNLTLVDLPGMTKVPVGDQPPDIEFQIRDMLMQFVTKENCLILAVSPANSDLANSDALKIAKEVDPQGQRTIGVITKLDLMDEGTDARDVLENKLLPLRRGYIGVVNRSQKDIDGKKDITAALAAERKFFLSHPSYRHLADRMGTPYLQKVLNQQLTNHIRDTLPGLRNKLQSQLLSIEKEVDEYKNFRPDDPARKTKALLQMVQQFAVDFEKRIEGSGDQIDTYELSGGARINRIFHERFPFELVKMEFDEKELRREISYAIKNIHGIRTGLFTPDLAFEATVKKQVQKLKEPSIKCVDMVVSELTSTIRKCSEKLQQYPRLREEMERIVTTHIREREGRTKEQVMLLIDIELAYMNTNHEDFIGFANAQQRSNQMNKKKTSGNQDEILVIRKGWLTINNIGIMKGGSKEYWFVLTAENLSWYKDDEEKEKKYMLSVDNLKLRDVEKGFMSSKHIFALFNTEQRNVYKDYRQLELACETQEEVDSWKASFLRAGVYPERVGDKEKASETEENGSDSFMHSMDPQLERQVETIRNLVDSYMAIVNKTVRDLMPKTIMHLMINNTKEFIFSELLANLYSCGDQNTLMEESAEQAQRRDEMLRMYHALKEALSIIGDINTTTVSTPMPPPVDDSWLQVQSVPAGRRSPTSSPTPQRRAPAVPPARPGSRGPAPGPPPAGSALGGAPPVPSRPGASPDPFGPPPQVPSRPNRAPPGVPSRSGQASPSRPESPRPPFDL
Regarding B1, the binding result was “binds”.
